Results published in PubChem BioAssay AID1487 (National Center for Advancing Translational Sciences (NCATS), 2009).
The list shows a part of the results. Shown are side measurements of this screen, not its main read-out; they come without a call. Most of these compounds were active or inconclusive in the main read-out, so they are no random draw. Potencies come from curve fits of mixed quality, noted in brackets.

Assay: qHTS Assay for Modulators of Lamin A Splicing
Conditions: HeLa LMNA splicing GFP/RFP minigene ratio, 48 h
How it was run: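 S3 HeLa cells stably expressing lamin A-EGFP splicing minigene plus DsRed2, 600 cells/well, 48 h compound exposure at 37C. Laser-scanning cytometry; analysed as GFP (500-530 nm)/RFP (575-640 nm) total intensity ratio; 0.5% DMSO vehicle.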

[1] = measured here: GFP splicing reporter channel
[2] = measured here: RFP viability control channel

SMILES	AC50 [1]	AC50 [2]
CCCNS(=O)(=O)c1ccc(CCC(=O)NCCc2ccc(OC)c(OC)c2)cc1	0.1 µM [rising, full curve, poor fit]	
CC1CCCC(NC(=S)Nc2ccc(SC(F)F)cc2)C1C (stereo unspecified)	17.8 µM [rising, single point]	25.1 µM [rising, single point]
Cn1c(=O)[nH]c(=O)c2c1nc(Br)n2CCOc1ccccc1		35.5 µM [rising, single point]
CCCCCn1c(=N)n(CC(O)COc2ccccc2OC)c2ccccc21 (stereo unspecified)	31.6 µM [rising, single point]	25.1 µM [rising, single point]
Cc1cccc(OCC(=O)Nc2ccc3nc(Nc4cccc(Cl)c4)cc(C)c3c2)c1	20 µM [falling, partial curve]	11.2 µM [falling, partial curve]
Cc1cc(C)n2nc(S(=O)(=O)N(C)Cc3ccccc3)nc2n1	0.00501 µM [falling, full curve, poor fit]	0.00447 µM [falling, full curve, poor fit]
CCCCC/C=C\C/C=C\C/C=C\CCCCC(=O)O	0.00708 µM [falling, full curve, poor fit]	
CC(C)c1ccc2oc(=O)cc(CN3CCN(c4ccccc4)CC3)c2c1	14.1 µM [rising, partial curve]	31.6 µM [rising, single point]
COc1ccc(OCC(O)Cn2c(Nc3cccc(C)c3)nc3c2c(=O)n(C)c(=O)n3C)cc1 (stereo unspecified)		0.112 µM [rising, full curve, poor fit]
N#Cc1nc(COc2ccc(Br)cc2)oc1NCCCn1ccnc1		2.82 µM [rising, full curve]
CCC(C)n1c(SCC(=O)Nc2ccccc2C(F)(F)F)nc2ccsc2c1=O (stereo unspecified)	12.6 µM [rising, partial curve]	20 µM [rising, single point]
Cc1ccc(-c2nc3cccnc3s2)cc1NC(=O)Cc1ccccc1		11.2 µM [rising, partial curve]
CCOC(=O)c1ccc(NC(=O)CSc2nc3ncccc3[nH]2)cc1	14.1 µM [rising, single point]	35.5 µM [rising, single point]
COc1ccc(NC(=O)CN2C(=O)C(c3ccccc3)=NC23CCCCCC3)cc1OC		15.8 µM [rising, partial curve, poor fit]
COC(=O)c1c(NC(=O)c2ccccc2[N+](=O)[O-])sc2c1CC(C)(C)NC2(C)C		11.2 µM [rising, single point]
Cc1cc(-n2cnnn2)ccc1C(C)C	5.01 µM [rising, partial curve]	
COc1ccccc1Nc1ncnc2c1nc1n2CCCC1		0.1 µM [falling, partial curve, poor fit]
CC(=O)c1ccc(N2CCN(C(=O)c3cc(-c4cccnc4)nc4ccc(Br)cc34)CC2)cc1		4.47 µM [falling, full curve, poor fit]
NC(=NCCc1c[nH]c2ccccc12)NS(=O)(=O)c1ccc(F)cc1	28.2 µM [rising, single point]	25.1 µM [rising, single point]
Fc1ccc(NC(=S)NC2CC3CCCC(C2)N3Cc2cccs2)cc1 (stereo unspecified)	1 µM [falling, full curve, poor fit]	
Cc1nnc(SCC(=O)Nc2ccc3c(c2)OCO3)[nH]c1=O		0.00891 µM [falling, full curve, poor fit]
COC(=O)c1sc2nc(SCc3ccccc3C)n(N)c(=O)c2c1C	12.6 µM [falling, single point]	12.6 µM [falling, partial curve]
COc1cccc(-c2nc(SCC(=O)N3CCc4ccccc43)c3c(=O)n(C)c(=O)n(C)c3n2)c1	0.355 µM [rising, single point]	
Cc1ccc(S(=O)(=O)N(C)C)cc1NC(=S)NC1CCCC(C)C1C (stereo unspecified)	5.62 µM [rising, partial curve]	12.6 µM [rising, partial curve]
COc1ccc(-c2nc3cnccn3c2Nc2ccc3c(c2)OCO3)cc1		11.2 µM [rising, partial curve, poor fit]
C=CCc1c(C)nc2nc(SCC(=O)Nc3ccc(OCC)cc3)nn2c1C		0.0447 µM [rising, full curve, poor fit]
Cc1[nH]c2ccccc2c1CCNC(=O)c1ccc2c(c1[N+](=O)[O-])C(=O)c1ccccc1C2=O	14.1 µM [falling, partial curve]	11.2 µM [falling, partial curve]
Cc1ccccc1Nc1nc(N)nc(COC(=O)CC2CC3CCC2C3)n1 (stereo unspecified)		17.8 µM [rising, partial curve, poor fit]

SMILES	AC50 [1]	AC50 [2]
O=C1O[C@H]([C@@H](O)CO)C(O)=C1O	0.00355 µM [falling, full curve, poor fit]	0.00251 µM [falling, full curve, poor fit]
Cc1ccc(NC(=O)c2ccc(F)c(S(=O)(=O)N3CCOCC3)c2)cc1F	6.31 µM [rising, full curve, poor fit]	10 µM [rising, partial curve]
Clc1cccc(-n2ncc3c(N4CCN(Cc5ccccc5)CC4)ncnc32)c1		25.1 µM [rising, partial curve]
O=S(=O)(c1ccc2ccccc2c1)N1CCN(C(=S)Nc2ccc(F)c(Cl)c2)CC1		12.6 µM [rising, partial curve]
Cc1noc(C)c1COC(=O)C1(c2cccc(F)c2)CCCC1	11.2 µM [rising, single point]	20 µM [rising, single point]
O=c1[nH]c(CSc2nnc(COc3ccccc3)n2-c2ccccc2)nc2ccccc12		10 µM [rising, partial curve]
O=C(COC(=O)c1c2c(nc3ccccc13)/C(=C\c1cccs1)CCC2)Nc1ccccc1Cl		7.08 µM [rising, partial curve, poor fit]
Cc1ccc(NC(=O)CCCSc2nc3ccccc3[nH]2)cc1	4.47 µM [rising, partial curve]	12.6 µM [rising, partial curve]
Clc1ccc(C(c2ccccc2Cl)C(Cl)Cl)cc1 (stereo unspecified)	4.47 µM [rising, partial curve, poor fit]	6.31 µM [falling, partial curve, poor fit]
CC(C)Oc1ccc(CNC(=O)c2ccc3nc(Cc4ccccc4)oc3c2)cc1	0.00794 µM [falling, full curve, poor fit]	
CCC(CC)C(=O)Nc1ccc2nc(SCC(=O)N3c4ccccc4CC3C)sc2c1 (stereo unspecified)	1.41 µM [falling, partial curve, poor fit]	
CC(C)(C)C(=O)Nc1nc2c(s1)COc1ccccc1-2		11.2 µM [rising, partial curve]
CCN(CC)S(=O)(=O)c1cccc(NC(=O)CCSc2ccc(Cl)cc2)c1		20 µM [rising, single point]
COc1ccc([N+](=O)[O-])cc1NC(=O)C(C)Sc1nc(C)c(C)c(C)n1 (stereo unspecified)	17.8 µM [rising, single point]	35.5 µM [rising, single point]
CN(C)c1ccc(C(=C2C=CC(=[N+](C)C)C=C2)c2ccccc2)cc1	8.91 µM [rising, partial curve]	5.62 µM [rising, full curve]
CCOC(=O)C1CCN(CCC(=O)Nc2ccc(C)c(C)c2)CC1		1.12 µM [falling, full curve, poor fit]
COc1ccc(NC(=O)c2sc3nc(Cc4ccccc4)cc(C(F)(F)F)c3c2N)cc1OC	1.78 µM [rising, full curve, poor fit]	
CN(C)CCOC(=O)C(c1ccccc1)C1(O)CCCC1 (stereo unspecified)		2.24 µM [falling, partial curve]
CC(C)N1CCC(=NNC(=O)c2ccccc2[N+](=O)[O-])CC1	3.55 µM [falling, partial curve]	
CC1CC1c1ccc(/C=C(\C#N)C(=O)Nc2ccccc2Cl)o1 (stereo unspecified)		22.4 µM [rising, single point]
CCc1cc(Cl)c(OC)c(C(=O)NC[C@@H]2CCCN2CC)c1O	11.2 µM [falling, single point]	7.94 µM [falling, single point]
Cc1ccc2onc(CC(=O)N3CCN(c4ccccc4F)CC3)c2c1		2.82 µM [rising, full curve]
COc1ccc(NC(=O)C2CCCN(S(=O)(=O)c3ccc(C)cc3)C2)cc1OC (stereo unspecified)		20 µM [rising, single point]
CCn1cc(C(=O)O)c(=O)c2cc(F)c(N/N=C/c3ccccc3[N+](=O)[O-])cc21		6.31 µM [rising, partial curve, poor fit]
Cc1ccccc1-n1sc2cc(F)ccc2c1=O	35.5 µM [falling, single point]	35.5 µM [falling, partial curve]
CCn1c(C)c(C2=CCN(S(=O)(=O)c3ccc(C)cc3)CC2)c2ccccc21		20 µM [rising, partial curve]
O=C(Nc1nc(-c2ccc(Cl)s2)cs1)c1cccs1	12.6 µM [rising, single point]	25.1 µM [rising, single point]

In the list so far, 2 have a COOH group:
SMILES	AC50 [1]	AC50 [2]
CCCCC/C=C\C/C=C\C/C=C\CCCCC(=O)O	0.00708 µM [falling, full curve, poor fit]	
CCn1cc(C(=O)O)c(=O)c2cc(F)c(N/N=C/c3ccccc3[N+](=O)[O-])cc21		6.31 µM [rising, partial curve, poor fit]
